# PubChem BioAssay AID1259308, NCATS – 2017
# Test: 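Genes whose loss raises luciferase production in HEK293 cells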 (primary screen)
# System: human HEK293 embryonic kidney cells stably expressing firefly luciferase (HEK-CMV-Luc2-Hygro)
# Knock-down reagent: single siRNA against human genes, 0.8 pmol siRNA per well
# Time to read-out: 72 h
# Measured: 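Reporter luminescence and viable-cell signal on separate replicate plates, given as percent of non-targeting control and median/MAD z-scores, plus per-cell luciferase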
# Direction: total luciferase, z-score and total luciferase, % of control: higher = more reporter protein produced
# Active means: 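An siRNA counts as active if its total luciferase robust z-score exceeds 3; genes with two or more such siRNAs out of three were retested with fresh siRNAs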
# Calls: active = raised luciferase; inactive = no rise
# The whole screen tested about 59,000 reagents; shown is a random part of them. In the full data, about 1,510 (2.6%) got an active call. 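Calls use total luciferase alone and ignore viability, so some active siRNAs may act by altering cell number.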 The numbers tell different reagents against one gene apart. Further read-outs or replicates are left out here.
gene symbol,reagent no.,"total luciferase, z-score","total luciferase, % of control",call
PNKP (polynucleotide kinase 3'-phosphatase),1,0.22,86.3,inactive
PNKP (polynucleotide kinase 3'-phosphatase),2,0.326,88.4,inactive
PNKP (polynucleotide kinase 3'-phosphatase),3,-0.0191,81.5,inactive
TTC28 (tetratricopeptide repeat domain 28),1,-0.273,76.5,inactive
TTC28 (tetratricopeptide repeat domain 28),2,0.0504,82.9,inactive
TTC28 (tetratricopeptide repeat domain 28),3,-0.226,77.4,inactive
CHRNA10 (cholinergic receptor nicotinic alpha 10 subunit),1,0.856,98.9,inactive
CHRNA10 (cholinergic receptor nicotinic alpha 10 subunit),2,-2.43,33.6,inactive
CHRNA10 (cholinergic receptor nicotinic alpha 10 subunit),3,0.327,88.4,inactive
HOXA7 (homeobox A7),1,0.292,87.7,inactive
HOXA7 (homeobox A7),2,-1.65,49.1,inactive
HOXA7 (homeobox A7),3,0.29,87.6,inactive
GRID1 (glutamate ionotropic receptor delta type subunit 1),1,0.0425,82.7,inactive
GRID1 (glutamate ionotropic receptor delta type subunit 1),2,0.859,99,inactive
GRID1 (glutamate ionotropic receptor delta type subunit 1),3,-0.334,75.2,inactive
RETREG1 (reticulophagy regulator 1),1,-0.49,72.1,inactive
RETREG1 (reticulophagy regulator 1),2,-1.08,60.3,inactive
RETREG1 (reticulophagy regulator 1),3,-1.3,56,inactive
SGO2 (shugoshin 2),1,0.522,92.3,inactive
SGO2 (shugoshin 2),2,0.145,84.8,inactive
SGO2 (shugoshin 2),3,0.385,89.5,inactive
STYK1 (STY kinase 1),1,0.0801,83.5,inactive
STYK1 (STY kinase 1),2,-0.158,78.7,inactive
STYK1 (STY kinase 1),3,-0.59,70.1,inactive

The list goes on (2 carried over from the part before).
gene symbol,reagent no.,"total luciferase, z-score","total luciferase, % of control",call
STYK1 (STY kinase 1),2,-0.158,78.7,inactive
STYK1 (STY kinase 1),3,-0.59,70.1,inactive
CHLSN (cholesin),1,0.567,93.2,inactive
CHLSN (cholesin),2,-0.414,73.6,inactive
CHLSN (cholesin),3,-0.126,79.4,inactive
ISL1 (ISL LIM homeobox 1),1,-0.499,72,inactive
ISL1 (ISL LIM homeobox 1),2,1.82,118,inactive
ISL1 (ISL LIM homeobox 1),3,1.04,103,inactive
PPP1R12C (protein phosphatase 1 regulatory subunit 12C),1,1.92,120,inactive
PPP1R12C (protein phosphatase 1 regulatory subunit 12C),2,-0.172,78.5,inactive
PPP1R12C (protein phosphatase 1 regulatory subunit 12C),3,0.0648,83.2,inactive
CES4A (carboxylesterase 4A),1,0.607,94,inactive
CES4A (carboxylesterase 4A),2,-0.871,64.6,inactive
CES4A (carboxylesterase 4A),3,2.22,126,inactive
ADAP1 (ArfGAP with dual PH domains 1),1,1.6,114,inactive
ADAP1 (ArfGAP with dual PH domains 1),2,-1.57,50.6,inactive
ADAP1 (ArfGAP with dual PH domains 1),3,-0.274,76.4,inactive
ENY2 (ENY2 transcription and export complex 2 subunit),1,0.267,87.2,inactive
ENY2 (ENY2 transcription and export complex 2 subunit),2,1.11,104,inactive
ENY2 (ENY2 transcription and export complex 2 subunit),3,4.38,169,active
PARPBP (PARP1 binding protein),1,-0.782,66.3,inactive
PARPBP (PARP1 binding protein),2,0.188,85.6,inactive
PARPBP (PARP1 binding protein),3,-2.78,26.6,inactive
GPRC6A (G protein-coupled receptor class C group 6 member A),1,0.0806,83.5,inactive
GPRC6A (G protein-coupled receptor class C group 6 member A),2,0.127,84.4,inactive
GPRC6A (G protein-coupled receptor class C group 6 member A),3,0.0708,83.3,inactive
KLK6 (kallikrein related peptidase 6),1,-0.738,67.2,inactive
KLK6 (kallikrein related peptidase 6),2,-0.32,75.5,inactive
KLK6 (kallikrein related peptidase 6),3,2.73,136,inactive
LINC01348 (long independently transcribed non-coding RNA 1348),1,-0.479,72.4,inactive
LINC01348 (long independently transcribed non-coding RNA 1348),2,-0.516,71.6,inactive
LINC01348 (long independently transcribed non-coding RNA 1348),3,-0.95,63,inactive
DDX5 (DEAD-box helicase 5),1,0.249,86.8,inactive
DDX5 (DEAD-box helicase 5),2,3.01,142,active
DDX5 (DEAD-box helicase 5),3,0.298,87.8,inactive
